The exact form of at least one protein or probe is not confirmed. Tags and fusion partners may be left off the protein sequences shown.
Target: T1, Bpur (Borrelia burgdorferi B31) (UniProt O51076)
T1 sequence (looked up): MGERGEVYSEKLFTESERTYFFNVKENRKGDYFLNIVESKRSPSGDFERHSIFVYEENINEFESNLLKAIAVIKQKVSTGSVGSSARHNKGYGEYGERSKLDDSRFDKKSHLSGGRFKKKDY
Assay: EMSA
Settings: EMSA: 50 mM Tris pH 7.5, 25 mM KCl, 1 mM MgCl2, 100 nM DTT, 10% glycerol, 0.01% Tween 20, 0.1% PMSF, temperature not stated, RNA/ssDNA probes preheated at 56 C, recombinant protein, residues 1-122

Sequence: AATGGAGAGATTTTGGGGAGTTGTTTAAAATTACATTTGCGTTTTGTTAAAATG (double strand) [Bio-dsDNA]
- Kd (label: 5' biotin (one strand)): 127 nM

Sequence: AATGGAGAGATTTTGGGGAGTTGTTTAAAATTACATTTGCGTTTTGTTAAAATG [Bio-sense-ssDNA]
- Kd (label: 5' biotin, single-stranded DNA): 393 nM

From PMC3764826, “Bpur, the Lyme Disease Spirochete's PUR Domain Protein”
